{"source": "PubChem BioAssay AID1259424 (University of Nebraska Medical Center, 2018)", "assay": "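Seek colon cancer survival genes behaving like KSR1, using a six-gene signature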 (primary screen)", "cells": "human HCT116 colon cancer cells", "reagents": "siRNA pool against human genes, 50 nM", "measurement": "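Six signature mRNAs by branched-DNA multiplex assay, scaled to two housekeeping genes and non-targeting median, log2; matched to mean KSR1 knockdown profile by Pearson correlation and euclidean distance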", "direction": "mean correlation with KSR1 profile: higher = expression change more like KSR1 knockdown", "note": "In all, the deposit lists about 14,000 reagents; shown is a random part of them. 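Higher correlation or smaller distance means closer resemblance to KSR1 loss; control wells, including KSR1 knockdowns, recur on many plates.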 A reagent listed more than once was tested more than once; the source does not tell the runs apart. Not all columns of the deposit are shown. The record does not give: the time to read-out."}
{"Gene": "ERGIC2", "mean correlation with KSR1 profile": 0.118}
{"Gene": "OTUB2", "mean correlation with KSR1 profile": -0.44}
{"Gene": "ATP2B4", "mean correlation with KSR1 profile": 0.152}
{"Gene": "NR1H4", "mean correlation with KSR1 profile": -0.741}
{"Gene": "TNPO1", "mean correlation with KSR1 profile": 0.382}
{"Gene": "MAK", "mean correlation with KSR1 profile": 0.629}
{"Gene": "RAD17", "mean correlation with KSR1 profile": 0.641}
{"Gene": "CCDC136", "mean correlation with KSR1 profile": 0.838}
{"Gene": "RAB11A", "mean correlation with KSR1 profile": 0.25}
{"Gene": "GRK6", "mean correlation with KSR1 profile": 0.547}
{"Gene": "GRK6", "mean correlation with KSR1 profile": 0.512}
{"Gene": "PROZ", "mean correlation with KSR1 profile": 0.757}
{"Gene": "TNK2", "mean correlation with KSR1 profile": 0.277}
{"Gene": "SLC10A3", "mean correlation with KSR1 profile": -0.387}
{"Gene": "ACP2", "mean correlation with KSR1 profile": -0.373}
{"Gene": "LOC84843 (retired record)", "mean correlation with KSR1 profile": 0.357}
{"Gene": "SETD6", "mean correlation with KSR1 profile": -0.0327}
{"Gene": "CACTIN", "mean correlation with KSR1 profile": -0.832}
{"Gene": "CRIP1", "mean correlation with KSR1 profile": 0.928}
{"Gene": "SPRY2", "mean correlation with KSR1 profile": -0.405}
{"Gene": "TRPT1", "mean correlation with KSR1 profile": 0.437}
{"Gene": "RIMBP2", "mean correlation with KSR1 profile": -0.0308}
{"Gene": "PCDHGA3", "mean correlation with KSR1 profile": -0.133}

Copied from above for reference:
{"Gene": "CRIP1", "mean correlation with KSR1 profile": 0.928}
{"Gene": "SPRY2", "mean correlation with KSR1 profile": -0.405}

The list goes on.
{"Gene": "SLC34A1", "mean correlation with KSR1 profile": -0.232}
{"Gene": "CCDC198", "mean correlation with KSR1 profile": 0.713}
{"Gene": "RPL36", "mean correlation with KSR1 profile": -0.618}
{"Gene": "MYRIP", "mean correlation with KSR1 profile": 0.27}
{"Gene": "OR1E1", "mean correlation with KSR1 profile": 0.508}
{"Gene": "CSN3", "mean correlation with KSR1 profile": -0.353}
{"Gene": "USP39", "mean correlation with KSR1 profile": -0.455}
{"Gene": "USP44", "mean correlation with KSR1 profile": -0.0088}
{"Gene": "HSPBAP1", "mean correlation with KSR1 profile": 0.401}
{"Gene": "NAT9", "mean correlation with KSR1 profile": -0.43}
{"Gene": "GPR21", "mean correlation with KSR1 profile": -0.849}
{"Gene": "LNX1", "mean correlation with KSR1 profile": -0.107}
{"Gene": "H3C3", "mean correlation with KSR1 profile": -0.302}
